Binding data for two molecules are collected here from patent US20100093624A1, “PEPTIDE THERAPEUTICS THAT BIND VEGF AND METHODS OF USE THEREOF” (Cosmix Therapeutics LLC, priority 2008, published 2010).

Sequences of proteins named here, by UniProt entry; tags and fusion partners are left off. Residues count along the entry.
UniProt P02769, residues 25-607: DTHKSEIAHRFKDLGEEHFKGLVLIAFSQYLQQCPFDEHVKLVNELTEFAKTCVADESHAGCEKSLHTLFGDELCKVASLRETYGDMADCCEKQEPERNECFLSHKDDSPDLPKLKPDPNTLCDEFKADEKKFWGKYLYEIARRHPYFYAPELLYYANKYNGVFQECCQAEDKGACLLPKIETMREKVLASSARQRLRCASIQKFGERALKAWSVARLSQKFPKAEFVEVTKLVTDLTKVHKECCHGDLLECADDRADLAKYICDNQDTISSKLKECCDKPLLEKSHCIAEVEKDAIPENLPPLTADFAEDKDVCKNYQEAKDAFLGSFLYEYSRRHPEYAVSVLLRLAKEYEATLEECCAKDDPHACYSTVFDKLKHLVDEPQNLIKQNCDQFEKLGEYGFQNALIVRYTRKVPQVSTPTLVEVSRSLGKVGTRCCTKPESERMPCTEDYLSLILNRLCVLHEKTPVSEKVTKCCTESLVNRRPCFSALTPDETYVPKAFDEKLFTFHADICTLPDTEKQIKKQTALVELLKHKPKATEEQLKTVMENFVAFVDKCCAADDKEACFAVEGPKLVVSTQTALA

Results are given in words; binding and its absence hold for the method and conditions named. Some binding calls cover weakened binding; strength is not graded here.

This assay concerns the target contr. (BSA) (bovine) (UniProt P02769). Nature of the assay: ELISA: 1% BSA coated as control, biotinylated L-peptide, streptavidin-peroxidase. In general terms: An ELISA detects its analyte on a solid surface through an enzyme-linked reagent.

B1: Peptide 07-007 (L-form; original starting sequence of G2306) (peptide)
peptide: GNALHWVCASNICWRSPWAGRLWGLVRLT
modifications: N-terminal acetyl (Ac-); C-terminal PEG-Bio (PEG spacer and biotin); all L-form
Take B1: the binding result is listed as “binds”.

B2: Peptide 07-072 (L-form; variant carrying all three hot spot mutations) (peptide)
peptide: SGSSSGSGSGNALHWVCASNICWRTPWAGQLWRLVRLT
modifications: free N-terminus (H2N-); C-terminal PEG-Bio (PEG spacer and biotin); all L-form
For B2, the binding entry is reported as “binds”.
